Laboratory results reported in PubChem BioAssay AID1671190 (National Center for Advancing Translational Sciences (NCATS), 2021).
Several values for one entry are separate records, joined by “and”; a condition that tells them apart may be missing. Equal values may be shown once. The whole screen tested about 580,000 compounds, of which about 6,100 (1.1%) were called active. The inconclusive results got no clear call from the source; some entries with a clear call stand among them for comparison. The call rests on the fitted dose curve; in most records, active means well fitted inhibition curve with a large enough effect; inconclusive means small, poorly fitted or top-dose-only effect, or another doubt; inactive means no such curve, though single readings can be large or run the other way. A potency beside an inconclusive call is a rough fit, not a confirmed value.

Amino acid sequences for entries named in this document (tags omitted).
UniProt P18054, whole entry, looked up: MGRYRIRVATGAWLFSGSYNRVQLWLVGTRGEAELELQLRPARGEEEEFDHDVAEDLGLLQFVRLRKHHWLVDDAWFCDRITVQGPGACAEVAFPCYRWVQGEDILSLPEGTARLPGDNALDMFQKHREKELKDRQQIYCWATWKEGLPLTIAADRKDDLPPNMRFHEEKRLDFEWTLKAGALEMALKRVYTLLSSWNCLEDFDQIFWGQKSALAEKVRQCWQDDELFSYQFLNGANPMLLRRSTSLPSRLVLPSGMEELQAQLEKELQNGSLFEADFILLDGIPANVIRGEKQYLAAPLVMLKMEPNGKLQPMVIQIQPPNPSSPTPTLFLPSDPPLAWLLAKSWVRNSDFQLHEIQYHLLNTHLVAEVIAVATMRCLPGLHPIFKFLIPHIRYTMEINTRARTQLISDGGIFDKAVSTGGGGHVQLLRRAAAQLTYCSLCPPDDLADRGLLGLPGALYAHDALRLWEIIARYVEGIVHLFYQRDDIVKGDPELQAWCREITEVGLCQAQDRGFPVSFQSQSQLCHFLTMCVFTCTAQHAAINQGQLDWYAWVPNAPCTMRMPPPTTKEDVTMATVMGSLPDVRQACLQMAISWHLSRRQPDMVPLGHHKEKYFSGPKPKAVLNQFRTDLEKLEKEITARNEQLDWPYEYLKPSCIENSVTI

Target: Polyunsaturated fatty acid lipoxygenase ALOX12 (Homo sapiens) (UniProt P18054)
Assay: Primary qHTS assay for inhibitors of human arachidonate 12S-lipoxygenase (ALOX12): Round 2
Conditions: purified 12hLO, xylenol orange hydroperoxide absorbance; activity change, negative = inhibition: at 108 µM (top of the series) unless noted
Method in brief: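 Purified human 12hLO at 150 nM in 25 mM Hepes, 0.01% Triton X-100, pH 7.0, preincubated 15 min at room temperature with compound. Reaction started with 40 uM arachidonic acid, 30 min at room temperature. Hydroperoxide measured by Fe-xylenol orange, 573/405 nm absorbance ratio.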
On the % scale 0 is the no-effect control and ±100 the full control effect; potency means the concentration at half of the fitted maximal effect.

SMILES | activity change, negative = inhibition | Potency
O=S(=O)(Nc1nc2ccccc2nc1N1CCN(c2ccccn2)CC1)c1ccc(Cl)cc1 | inactive: -10.9% | –
O=C(Nc1nc(-c2ccc3ccccc3c2)cs1)C1CCN(S(=O)(=O)c2cccs2)CC1 | – | inconclusive: 178 µM [inhibitor, partial curve, poor fit]
N#CCC(=N)N1CCN(c2ccccc2Cl)CC1 | – | inconclusive: 31.6 µM [inhibitor, single point]
CC(C)(C)C(=O)/C=c1/[nH]c(=O)/c(=C/c2ccccc2OC(F)F)s1 | inactive: -1.28% | –
COC(=O)c1c(NC(=O)C2CC2)sc(C)c1C | – | inconclusive: 70.8 µM [inhibitor, partial curve, poor fit]
O=C(O)Cc1sc(NCc2ccco2)nc1-c1ccccc1 | inactive: -7.49% | –
CCCCC(c1nnnn1CCOC)N1CCN(C)CC1 (stereo not drawn) | – | inconclusive: 31.6 µM [inhibitor, partial curve, poor fit]
N#Cc1ccc(OCCN2CCc3ccccc3C2)cc1 | – | inconclusive: 0.224 µM [inhibitor, full curve, poor fit]
C/C=C/c1ccc(O)c(OC)c1 | – | inconclusive: 9.07 µM [inhibitor, partial curve]
COc1ccc(C(=O)NC(=S)NNC(=O)c2cccnc2)cc1 | – | inconclusive: 35.5 µM [inhibitor, partial curve, poor fit]
COc1cc(OC)cc(C(=O)N2CCC(N3CCCCCC3)CC2)c1 | – | inconclusive: 0.562 µM [inhibitor, full curve]
C#CCN1CCN(C(=O)c2cc(-c3ccccc3)nc3ccc(C)cc23)CC1 | – | inconclusive: 31.6 µM [inhibitor, single point]
O=C(NCCCn1ccnc1)c1cccc(S(=O)(=O)Nc2ccc(F)cc2)c1 | – | inconclusive: 7.08 µM [inhibitor, full curve, poor fit]
COC(=O)c1ccc(OCc2ccc(Cl)cc2)cc1 | inactive: 0.776% | –
CCc1ccc(NS(=O)(=O)c2ccc3[nH]cc(C(=O)N(C)Cc4ccco4)c(=O)c3c2)cc1 | – | inconclusive: 44.7 µM [inhibitor, partial curve, poor fit] and inconclusive: 56.2 µM [inhibitor, partial curve, poor fit]
Cc1nc2c(c(=O)[nH]1)CCN(C(=O)CCc1n[nH]c3c1CCCC3)C2 | – | inconclusive: 6.31 µM [inhibitor, full curve]
COc1cc2c(cc1OC)-c1cc(Nc3ccccc3Br)nc(=O)n1CC2 | – | inconclusive: 89.1 µM [inhibitor, partial curve, poor fit]
CCCCNC(=S)NC(C)(C)CO | – | inconclusive: 56.2 µM [inhibitor, partial curve, poor fit]

Looked up above:
C/C=C/c1ccc(O)c(OC)c1 | Potency: inconclusive: 9.07 µM [inhibitor, partial curve]
CCc1ccc(NS(=O)(=O)c2ccc3[nH]cc(C(=O)N(C)Cc4ccco4)c(=O)c3c2)cc1 | Potency: inconclusive: 44.7 µM [inhibitor, partial curve, poor fit] and inconclusive: 56.2 µM [inhibitor, partial curve, poor fit]
